Test [1] addresses T1, PfRBX1-HA (P. falciparum) (UniProt O77367).
T1 sequence: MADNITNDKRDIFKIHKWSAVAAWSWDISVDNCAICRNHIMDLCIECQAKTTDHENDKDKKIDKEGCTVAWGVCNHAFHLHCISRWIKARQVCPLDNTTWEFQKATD
Kind of test: affinity purification with mass spectrometry; anti-HA agarose immunoprecipitation of PfRBX1-HA from schizont lysate (0.5X RIPA buffer, 1 h at room temperature), LC-MS/MS (DIA); parental DiCre strain as control.

Protein sequences, listed by entry. Tags and fused reporters are not part of them.
UniProt O77380: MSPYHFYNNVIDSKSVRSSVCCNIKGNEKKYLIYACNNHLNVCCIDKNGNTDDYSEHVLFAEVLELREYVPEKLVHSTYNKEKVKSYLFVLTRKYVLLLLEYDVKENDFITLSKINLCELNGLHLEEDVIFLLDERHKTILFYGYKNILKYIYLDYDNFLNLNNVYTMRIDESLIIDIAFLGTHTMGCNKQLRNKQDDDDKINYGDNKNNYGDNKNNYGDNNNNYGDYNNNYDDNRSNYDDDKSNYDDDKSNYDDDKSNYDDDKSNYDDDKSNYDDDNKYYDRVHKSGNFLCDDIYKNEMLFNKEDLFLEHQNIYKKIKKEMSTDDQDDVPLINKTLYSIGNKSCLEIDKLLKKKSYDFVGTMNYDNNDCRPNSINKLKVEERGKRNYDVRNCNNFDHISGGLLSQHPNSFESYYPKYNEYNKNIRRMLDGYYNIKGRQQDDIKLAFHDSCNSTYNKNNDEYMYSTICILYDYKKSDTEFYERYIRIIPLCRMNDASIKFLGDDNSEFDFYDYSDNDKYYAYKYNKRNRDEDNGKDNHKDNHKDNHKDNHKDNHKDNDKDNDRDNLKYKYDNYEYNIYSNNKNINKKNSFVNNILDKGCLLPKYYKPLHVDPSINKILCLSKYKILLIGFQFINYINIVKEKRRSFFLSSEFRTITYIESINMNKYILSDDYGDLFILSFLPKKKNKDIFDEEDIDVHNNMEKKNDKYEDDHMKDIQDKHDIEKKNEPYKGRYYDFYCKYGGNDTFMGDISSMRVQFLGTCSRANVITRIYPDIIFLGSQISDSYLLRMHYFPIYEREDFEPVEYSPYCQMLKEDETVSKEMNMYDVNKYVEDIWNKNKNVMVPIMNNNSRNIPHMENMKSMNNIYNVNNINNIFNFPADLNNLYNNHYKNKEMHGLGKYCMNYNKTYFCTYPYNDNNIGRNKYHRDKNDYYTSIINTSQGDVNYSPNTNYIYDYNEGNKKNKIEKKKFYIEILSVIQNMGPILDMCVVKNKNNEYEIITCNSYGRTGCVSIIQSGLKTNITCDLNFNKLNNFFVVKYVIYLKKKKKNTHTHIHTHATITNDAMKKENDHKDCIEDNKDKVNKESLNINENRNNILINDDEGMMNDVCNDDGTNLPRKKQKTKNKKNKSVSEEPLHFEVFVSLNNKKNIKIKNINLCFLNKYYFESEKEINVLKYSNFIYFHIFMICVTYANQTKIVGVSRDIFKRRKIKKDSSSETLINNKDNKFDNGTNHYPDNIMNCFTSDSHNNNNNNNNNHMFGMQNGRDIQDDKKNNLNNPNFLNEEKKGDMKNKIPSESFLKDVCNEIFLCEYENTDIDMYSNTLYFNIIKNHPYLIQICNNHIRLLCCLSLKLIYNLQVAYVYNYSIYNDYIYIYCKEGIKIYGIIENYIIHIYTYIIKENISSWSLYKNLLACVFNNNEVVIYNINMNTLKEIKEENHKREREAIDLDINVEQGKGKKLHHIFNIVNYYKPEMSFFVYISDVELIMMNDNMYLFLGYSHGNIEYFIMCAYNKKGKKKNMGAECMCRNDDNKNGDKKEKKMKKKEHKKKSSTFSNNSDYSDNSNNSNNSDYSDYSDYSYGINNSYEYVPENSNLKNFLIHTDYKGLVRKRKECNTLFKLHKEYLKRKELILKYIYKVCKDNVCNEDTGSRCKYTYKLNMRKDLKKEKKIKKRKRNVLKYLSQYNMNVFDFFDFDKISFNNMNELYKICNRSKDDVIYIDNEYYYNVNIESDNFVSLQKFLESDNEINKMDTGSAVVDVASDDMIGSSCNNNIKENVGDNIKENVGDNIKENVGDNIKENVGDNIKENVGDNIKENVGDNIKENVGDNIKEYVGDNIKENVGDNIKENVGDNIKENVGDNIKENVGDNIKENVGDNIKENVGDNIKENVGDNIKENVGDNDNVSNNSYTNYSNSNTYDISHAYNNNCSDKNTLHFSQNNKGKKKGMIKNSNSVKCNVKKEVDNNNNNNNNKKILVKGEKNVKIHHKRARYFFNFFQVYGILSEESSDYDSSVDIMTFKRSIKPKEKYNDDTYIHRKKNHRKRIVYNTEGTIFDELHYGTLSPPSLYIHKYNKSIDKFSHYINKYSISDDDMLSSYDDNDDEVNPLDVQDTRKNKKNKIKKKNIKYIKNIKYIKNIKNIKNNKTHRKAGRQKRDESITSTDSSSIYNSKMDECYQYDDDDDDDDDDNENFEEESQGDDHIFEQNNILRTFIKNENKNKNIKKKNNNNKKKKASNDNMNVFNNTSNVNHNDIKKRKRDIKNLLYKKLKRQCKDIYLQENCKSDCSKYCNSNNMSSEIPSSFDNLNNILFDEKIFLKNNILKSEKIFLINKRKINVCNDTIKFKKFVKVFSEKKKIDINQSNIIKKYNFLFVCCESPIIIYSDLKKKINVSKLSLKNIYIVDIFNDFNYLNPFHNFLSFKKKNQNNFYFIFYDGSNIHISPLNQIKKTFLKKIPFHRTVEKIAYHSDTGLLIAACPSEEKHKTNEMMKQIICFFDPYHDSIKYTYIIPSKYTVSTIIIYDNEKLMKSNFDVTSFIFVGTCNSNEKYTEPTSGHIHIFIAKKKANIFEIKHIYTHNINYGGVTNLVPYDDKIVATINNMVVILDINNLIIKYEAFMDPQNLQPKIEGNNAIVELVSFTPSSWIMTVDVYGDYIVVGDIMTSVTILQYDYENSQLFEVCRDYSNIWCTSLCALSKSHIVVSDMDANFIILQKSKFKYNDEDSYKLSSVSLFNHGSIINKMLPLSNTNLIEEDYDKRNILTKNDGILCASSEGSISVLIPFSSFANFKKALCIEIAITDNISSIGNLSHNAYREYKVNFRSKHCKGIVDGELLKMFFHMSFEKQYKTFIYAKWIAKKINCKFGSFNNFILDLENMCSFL

Test [2] concerns the target T2, PfMCM4-Flag (P. falciparum) (UniProt Q8IEE5).
T2 sequence: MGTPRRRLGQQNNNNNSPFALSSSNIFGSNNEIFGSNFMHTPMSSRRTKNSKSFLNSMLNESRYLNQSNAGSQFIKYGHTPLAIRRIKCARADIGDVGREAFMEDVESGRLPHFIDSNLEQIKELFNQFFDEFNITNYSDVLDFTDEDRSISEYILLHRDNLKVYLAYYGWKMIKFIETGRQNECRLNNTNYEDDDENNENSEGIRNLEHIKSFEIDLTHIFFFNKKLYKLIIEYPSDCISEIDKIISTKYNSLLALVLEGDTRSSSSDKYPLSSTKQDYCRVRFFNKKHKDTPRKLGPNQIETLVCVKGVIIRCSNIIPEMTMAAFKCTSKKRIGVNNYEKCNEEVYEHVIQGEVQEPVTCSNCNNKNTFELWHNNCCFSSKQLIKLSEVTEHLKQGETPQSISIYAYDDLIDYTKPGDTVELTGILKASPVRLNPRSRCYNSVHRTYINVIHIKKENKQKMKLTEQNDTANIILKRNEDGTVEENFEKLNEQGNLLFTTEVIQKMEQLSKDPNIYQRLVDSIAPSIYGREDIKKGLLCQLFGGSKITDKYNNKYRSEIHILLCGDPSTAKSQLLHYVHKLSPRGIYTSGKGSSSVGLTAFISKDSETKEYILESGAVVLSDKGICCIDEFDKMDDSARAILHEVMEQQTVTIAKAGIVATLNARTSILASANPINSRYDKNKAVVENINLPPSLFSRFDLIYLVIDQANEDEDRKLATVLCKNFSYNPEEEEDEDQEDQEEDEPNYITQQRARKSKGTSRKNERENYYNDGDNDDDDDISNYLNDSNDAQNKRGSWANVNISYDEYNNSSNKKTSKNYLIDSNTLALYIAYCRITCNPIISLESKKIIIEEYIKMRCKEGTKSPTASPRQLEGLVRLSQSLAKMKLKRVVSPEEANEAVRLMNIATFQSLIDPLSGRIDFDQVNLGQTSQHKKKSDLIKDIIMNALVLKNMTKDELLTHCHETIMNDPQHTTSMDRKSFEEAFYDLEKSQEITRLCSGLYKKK
Kind of test: affinity purification with mass spectrometry; anti-Flag agarose immunoprecipitation of PfMCM4-Flag from schizont lysate (0.5X RIPA buffer), LC-MS/MS; DiCre strain as control; also from DiCre-PfSKP1-HA and DiCre-PfRBX1-HA backgrounds pre-treated with DMSO or rapamycin.

These are yes or no findings as the source states them, for the method shown. In cells and extracts the contact can be indirect. These calls come from enrichment with a bait or labelling near it, and not all partners need be listed. Where a sequence is shown, tags or fusion partners need not be part of it.

Turning to “PfCPSFA (P. falciparum Cleavage and Polyadenylation Specific Factor Subunit A) (from UniProt O77380 1-2870)”, the binding entry in test [1] is “binds”.
Turning to “WD-repeat protein PF3D7_1410300 (from UniProt Q8ILZ2 1-4405)”, the binding entry in test [1] is “binds”.
For the molecule PfNEDD8, in test [1], the binding result was “binds”.

B1: PfMCM2 (protein, UniProt Q8ILR7 1-971)
chain: MEDKKKLEEDLESNKYDIDEEDLLEDEGRLNEEERQAELEGESLFEEDEGFIFGADDEKKEMQKLRNLGLDNDDYDDDFIDDELDYEDNLKARRAAERHMQMQRKQEGKYEKNKFWKTLEDQLEGDDEEEDIFDKVAEKVAKRRENLHLTAEETDIPDLSNLESAKICLSVNPKDVVFDERYQQAADTCFRYFLHKFSLKDSMGLNIDESNTELHEEEHMNSSHQYYIDKIEKMILNDKHTLIVSAKHLIQFHCENLVQWIEFKPEQILEVLHECLMVEAYRISPKLYKGRICKVVLRDWPYSTQLRNLRCTELNTLIKVTGVCIKRGYVLPKLRVMYLKCNSCDTTLSEVPIYFADGKKPVLPRRCPHCQSATFSVDRIKTAYTDYQKITLQESPCSVPAGRAPRQREVVVTGDLVDKVKPGEEVEVLGIYKTKYDIGLNIKYGFPILQTEIEANNIERKEDIQLSELTEDDIKDILKLSKDPNIRERIITSIAPAIWGHKDIKTSIAYALFGGVQKGGDKSFSKNNETNNFGVQNRDILNNFKGGHTIRGDINVLLLGDPGLGKSQVLQYVHKTNLRTVYTTGKGASAVGLTAGVRKDHTTNEWTLEGGALVLADEGICIIDEFDKMTDKDRVSIHEAMEQQSISISKAGIVTTLRARCAVIAAANPIYGRYDPSLTFKENVDLSDPILSRFDLITVLRDIPNVDEDFYLAEYVVTNHQLSHPKLENTQNYQKRIENLKNVIVSSSAYEPIPQDLLQKYIIYARTNCKPSLSDVPYAEISAKLSNFYSRVRQKASASGGYPLTLRHIESIIRIAEANAKMRLSHQIYSKDVDYAIATLLESYVSCQRFAVAKQLSKEFARYRALFRGGYEVLRELLRRTVQQMIQRQNLKNASAKDFQNDSESGTESEAEILNPNNVFLPLHIFMKTAMQNKFSEYQVVNWMKSKVFNEHYAVIKRDGVEGIISKKFKV
B1: in test [2], the binding result is listed as “binds”.

B2: PfMCM5 (protein, UniProt Q8I5T4 1-758)
chain: MIGIQEGRAFFNPTRNPNNRPENNIRIEENLPSLNEVYNYFQDFLSRYSSNTLKEGNLKRTLFENVKNNNFTLDLKLDDIYKQQTVFENNEISATPRSERKMKKPENYSAILARALSERPLTYLPTIERVCYEVCETANILNDEDEHLNYIQINLLNTFIRPTPIRGLLAATQERFVVVPGIIVQASKPQHKMRKITLQCRYCDHKMSIDVPLWRDKPQLPPYCRYSSTMKSSMGLGNAMDSQLGCNGVLEPYVILPNECTFVDIQSLKMQELPEAVPTGDMPRHLQLNVTRYLCEKMIPGDRVYVHGVLTSYNPNPRPTRADGTNFSYLHVLGFQKYDDMSGNDLNFDVEERNELTLLAAEHNIHEKIFKSIAPELYGMDEVKKACACLLFGGTRKRIGEETKIRGDINMLMLGDPSVAKSQILKFVNRCAPVSVYTSGKGSSAAGLTAAVMRDSQGVFSLEGGAMVLADGGVVCIDEFDKMRDDDVVAIHEAMEQQTISISKAGITTMLNTRCSVIAAANPSFGSYDDSQDTTYQHDFKTTILSRFDIIFLLRNKQDVEKDTLLCNHIVALHASKHKSQEGEIPLSKLTRYIQYAKREIAPLLSKEARDSLRNFYVQTRAEYRGDRRSVTKKIPITLRQLESLIRLAESFAKMELSQFATDKHVQMSIDLFSASTAETAKQCLIFETMSPLEQKAVKQAEDAILGRLGKGQRASRVNLFRELQLRGFDRSALSKALAILIKKGELQERGDRSVRRT
Consider B2, for which, in test [2], the binding entry is “binds”.

B3: leucine rich repeat protein PF3D7_1123300 (protein, UniProt Q8IID0 1-689)
chain: MANDLGEISNKQKGYMENNEKNSEKNNEINNEVTYKIINEIKNDTVRNNMVKEGNKNINKKHNESNVNIVGNKKYESDINMKNKSDEEKCKAFFKHEPCLKNVLRNIFLKSKSNKCYDDDNNNDDNNNDDNNNDDNNNDDNNNDDNNSSNNNNDDNNNDDNNSSNNNNDDNNNDDNNSSNNNNDDDFYTCTNTSIDKEINNNNVKNKKQKECINNEEKIPSEVECAICMKLLIVPVTIPCGHNFCRDCIEKAKEYKNLCPLCRSNMGDKKNINLLLGELIKQKYPLTYSKRLEEIENLKLEQEKKVIKERINAINNSSIIPIFKAPLIFGPYFPGEVFDINIYNKRFIDLIYFISNEGTFAITSSKEKNDEKKLYGIHVKILEQKKSNQVFYLKCVANFRVLLYNITLFTDYGNFVGLHSPLFDENISINFLTSHIINNTTVHTDSTNITYGNYNNEQDVGLSNNTNIGGKEKIGDLKKLLYQIEVEEDINLISYYYEQYKNITNMGELIDNNNDNNNNNDDNNNDDNNNNNNNSNNNSNNNNNNNNITNIVKYHCCIILSKICLLCIKNQLNRFGSAGVMLFNTKFRNIKLTSSEPSKEELEKFSYSLSCAIISRSVLKWKWFKITDTYERLESITQYFLKKKNKSILALDNSRSPLIHRFFMLDSISSSLIILVFFLIIICIKYFIY
With B3, the binding result in test [1] was “binds”.

B4: PfFBOX06 (protein, UniProt C6KSY8 1-604)
chain: MGKSNIFRRIHQNNTFNMKMNKKHHIDNECIFNNCTPLSTPRSISYIMNSNECYDYKTNKIEYISCLKFCPKQYNNIFKNSDIICNILSFLSFSERWKFRLLNKSFYQAFHTKYAWANIDFRFLNVDLFNFIKKYNKLFLNTFSLSMSINGDQSVEMIINFIFKHFNKLKDLRLYFRKKNANFIYESVHPIVSNLLNCKYLKNNNNNNNRNRKEMHKRKKKNSLYQKKQALTTTNNNNNNNNNDNNNDDNNNNNNGNHINCTHANHNNNYGNNYNECNDSNEHCREKENLQTSNFSPDIHIGQENSPNISRHAKKKKKNKQIDTSPTKKEKNIEHIHNTYNSYLDSVNHYNDIHNNLRDDNFDNIENSSSSTHSSSEKQCTPFSYEHMDCNFELNDYFLQNNHYQKYLQKKNKEKKNEIVEKYLHIIQSKKIWASKRLNISNNFQYLERLIIDVELKGEELLCFVGKLNNLKDIIISKLVYSNKLNRSQSIIIFTSFIEKMKRNNIRLIQLGLYFRMEHKPIDYLNNEKFRKILSERKEYVYDINKEEGDELIYILQKNHLNSLYCLWSNDLFISFEMYEQIKKFNNLKIWILPGWRALSLAKQ
Take B4: the binding entry in test [1] is reported as “binds”.

B5: PfMCM3 (protein, UniProt Q8I3J5 1-962)
chain: MESLSIEKNSTPFGRSEYRTFNSELNYTLMDSSLNHSSILDNSMKIEKDSRDKRLQKLNQNIVSEYESGRQSVVFTQQKYKQLLEGFLLFVQTNKYIHQKITELRTEAIDEYNRMQNKNIPNIIIHQRLICNINNFQTGNEQFELLAKCLIKEPYLALPAYQAAIKELWKSEDSKVDIDPPKIGICGWLGRHHVTPRGLQSSMINKLVAVEGVVNKCSTVQPKLVQSVYIGEAVHDMNADAKTSEKTVHLRPHYDITDFDKTAKDSGRPPASDPEGRIMHKHEIGLCKYKNHQKFVIQETPEDAPTGQMPRWVEVIVEDDLCDIVKCGDRVRVWGVYRANCGQANSTNSGLGRSFLIANNVLVKNKETYDSNLCISEADKKNFHAFAKKDNTIDILGYSFAPSICGQDIVKKAIVLMLAGGTERALPSHHIRGDIHIMLVGDPSCGKSQLLRYVMSIMPGTVSATGRGSSGVGLTAAIVTDQDTGERVVEGGAMVMGDRRVVCIDEFDKMQPTDRVAIHEVMEQQTVTVAKAGIHTTLNARCTVLAAANPLYGCWNDALDMGQQLQFEPSLLSRFDLIFLVRDSATEQDDERIAESVLRNVTEKAKPIMNESRNNQKNFVIQADSYDINPKAQHISIYNERDINQNNDSNNMQENEEYETPIFANRDEMIYYDKNGVEHEILTVPFFKKYLHYVKNIFYHEKQRTDGWKPYPEVSDEACEVITELYADLRERASKYSHNKLIQGVTPRTLEAIIRIASSHAKLKLNRYVTSVDVNYAKKLLMYTLFGEEIIDSNEEDEEEDEEEEEEEEEEDELEEDEEDDDDEEEKLKKKRRQRQKRASRKRSGEKKDLASNKKKKKKSEQPNENGNENYMIDDLPSNKSNDTLDIKEIERLIVENVTLNDPGDGLKDVELLDLIILGNKDKMPELSKLDINQLRQIINSLNDMDGAPIYYVKKDKIVYKC
B5: the binding entry in test [2] was “binds”.

The values above are taken from article PMC12218279.
